# Some of the results follow. Repeats are few or missing, and single values can be far off.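 The apoptosis fraction was the count of cleaved-PARP antibody-stained nuclei relative to all DNA-stained nuclei, imaged in 1,536-well plates. Screening doses were set so most cells survived, and baseline and induced cleaved-PARP levels vary greatly across cell lines.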
# Tested on: SkMel28
# Experiment: cleaved PARP positive nuclei fraction relative to DMSO control; melanoma cells; higher = more apoptosis
# Settings: library dose: low library concentration; 72 h
row,Structure (SMILES),cleaved PARP positive nuclei fraction
1,"NC(=O)Nc1cc(-c2cccc(F)c2)sc1C(=O)N[C@H]1CCCNC1 + O=S(=O)(c1ccccc1)N(CC(F)(F)F)c1ccc(C(O)(C(F)(F)F)C(F)(F)F)cc1 [T0901317] (first compound 0.02 µM, partner dose 1.4 µM)",144%
2,"O=C(Nc1cccc(Cl)c1)Nc1ncc(CCNc2ncnc3ccsc23)s1 + COc1cc(N2CCC(N3CCN(C)CC3)CC2)ccc1Nc1ncc(Cl)c(Nc2ccccc2S(=O)(=O)C(C)C)n1 [NVP-TAE684] (first compound 0.0008 µM, partner dose 0.08 µM)",75.1%
3,"C[C@]1(c2nc3c(C(N)=O)cccc3[nH]2)CCCN1 [Veliparib] + O=S(=O)(c1ccccc1)N(CC(F)(F)F)c1ccc(C(O)(C(F)(F)F)C(F)(F)F)cc1 [T0901317] (first compound 1.4 µM, partner dose 1.4 µM)",119%
4,"Cc1nc(Nc2ncc(C(=O)Nc3c(C)cccc3Cl)s2)cc(N2CCN(CCO)CC2)n1 [dasatanib] + CCc1ccc(CCOc2ccc(CC3SC(=O)NC3=O)cc2)nc1 [pioglitazone] (first compound 0.004 µM, partner dose 2 µM)",237%
5,"CC1(C)NC(=O)N(c2ccc([N+](=O)[O-])c(C(F)(F)F)c2)C1=O [nilutamide] + O=c1cc(-c2cccc3c2Sc2ccccc2S3)oc(N2CCOCC2)c1 [KU55933] (first compound 1 µM, partner dose 1 µM)",34.3%
6,"COc1cc(Nc2ncc(F)c(Nc3ccc4c(n3)NC(=O)C(C)(C)O4)n2)cc(OC)c1OC [Tamatinib] + Oc1nc(-c2ccc(C(F)(F)F)cc2)nc2c1CSCC2 [XAV939] (first compound 0.4 µM, partner dose 2 µM)",132%
7,"O=C(CCCCCCC(=O)Nc1ccccc1)NO [vorinostat] + O=C(O)C(=O)Nc1sc2c(c1C(=O)O)CCNC2 [TCS401] (first compound 0.08 µM, partner dose 1.66667 µM)",147%

# Tested on: SkMel30
# Experiment: as above
# Settings: library dose: low library concentration; 72 h
row,Structure (SMILES),cleaved PARP positive nuclei fraction
1,"O=C(CCCCCCC(=O)Nc1ccccc1)NO [vorinostat] + COc1ccc2c(c1)CCC1C2CCC2(C)C(NCCCCCCN3C(=O)C=CC3=O)CCC12 [U73122] (first compound 0.08 µM, partner dose 0.4 µM)",139%
2,"Cn1nnc2c(C(N)=O)ncn2c1=O [temozolomide] + COc1ccc(COc2ccc(Cc3cnc(N)nc3N)cc2OC)cc1 [GW2580] (first compound 2 µM, partner dose 1 µM)",35%
3,"OCCn1cc(-c2cnc3nnn(Cc4ccc5ncccc5c4)c3n2)cn1 + COc1ccc(-c2ccc3c(N4CCOCC4)nc(N4C[C@@H](C)O[C@@H](C)C4)nc3n2)cc1CO [KU0063794] (first compound 1 µM, partner dose 0.02 µM)",26.1%
4,"Cc1ccc(NC(=O)c2cccc(N(C)C)c2)cc1NC(=O)c1ccc(O)cc1 + Cn1cc(/C=C2\C(=O)Nc3cccnc32)c2ccccc21 [GW441756] (first compound 2 µM, partner dose 0.4 µM)",68.2%
5,"Cc1ccc(NC(=O)c2cccc(N(C)C)c2)cc1NC(=O)c1ccc(O)cc1 + CCCCCCCCCCCC1=C(O)C(=O)C=C(O)C1=O [Embelin] (first compound 2 µM, partner dose 1.2 µM)",198%
6,"Cn1cncc1[C@@](N)(c1ccc(Cl)cc1)c1ccc2c(c1)c(-c1cccc(Cl)c1)cc(=O)n2C [tipifarnib] + Cc1cc([N+](=O)[O-])ccc1NS(=O)(=O)c1cc(Cl)ccc1Cl [FH535] (first compound 0.01 µM, partner dose 1 µM)",28.8%
7,"Cn1c(Nc2ccc(C(F)(F)F)cc2)nc2cc(Oc3ccnc(-c4ncc(C(F)(F)F)[nH]4)c3)ccc21 + COc1ccc2c(c1)CCC1C2CCC2(C)C(NCCCCCCN3C(=O)C=CC3=O)CCC12 [U73122] (first compound 0.08 µM, partner dose 0.4 µM)",98.2%
8,"Cn1cncc1[C@@](N)(c1ccc(Cl)cc1)c1ccc2c(c1)c(-c1cccc(Cl)c1)cc(=O)n2C [tipifarnib] + Oc1cc(-c2nc(-c3ccccc3)[nH]c2-c2ccncc2)ccc1Cl [L779450] (first compound 0.01 µM, partner dose 0.2 µM)",16.1%

# For reference, some entries already given:
row,Structure (SMILES),cleaved PARP positive nuclei fraction
7,"Cn1c(Nc2ccc(C(F)(F)F)cc2)nc2cc(Oc3ccnc(-c4ncc(C(F)(F)F)[nH]4)c3)ccc21 + COc1ccc2c(c1)CCC1C2CCC2(C)C(NCCCCCCN3C(=O)C=CC3=O)CCC12 [U73122] (first compound 0.08 µM, partner dose 0.4 µM)",98.2%
8,"Cn1cncc1[C@@](N)(c1ccc(Cl)cc1)c1ccc2c(c1)c(-c1cccc(Cl)c1)cc(=O)n2C [tipifarnib] + Oc1cc(-c2nc(-c3ccccc3)[nH]c2-c2ccncc2)ccc1Cl [L779450] (first compound 0.01 µM, partner dose 0.2 µM)",16.1%

# Source: the supplement of paper PMC4604168 (melanoma cell lines)
